Assay results published in patent publication US20240351999A1, “PYRROLYLACYLPIPERIDYLAMINE COMPOUND AND USE THEREOF” (INSTITUTE OF MATERIA MEDICA ,CHINESE ACADEMY OF MEDICAL …, priority 2021, published 2024).
Some results were stated once for a whole list of compounds, not compound by compound.

System: Gram-positive bacteria
Assay: In vitro antibacterial activity, comparison with controls
Format: cell-based
Conditions: vs DS2969; Staphylococcus aureus, Staphylococcus epidermidis, Enterococcus faecalis, Enterococcus faecium

Row | Structure (SMILES) | Improvement of activity against Gram-positive bacteria compared with DS2969 [times]
1 | CO[C@H]1CN(c2ccc(C(C)(C)O)nn2)CC[C@H]1NC(=O)c1[nH]c(C)c(Cl)c1Cl [Compound 1, 3,4-dichloro-N-{(3S,4R)-1-[6-(2-hydroxypropan-2-yl)pyridazin-3-yl]-3-methoxypiperidin-4-yl}-5-methyl-IH-pyrrole-2-carboxamide] | ≥ 15
2 | CO[C@H]1CN(c2nnc(C(C)(C)O)s2)CC[C@H]1NC(=O)c1[nH]c(C)c(Cl)c1Cl [Compound 2, 3,4-Dichloro-N-((3S,4R)-1-(5-(2-hydroxypropan-2-yl)-1,3,4-thiadiazol-2-yl)-3-methoxypiperidin-4-yl)-5-methyl-1H-pyrrole-2-carboxamide] | ≥ 15
